# PubChem BioAssay AID686937, Drosophila RNAi Screening Center – 2013
# Screen: 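Genes whose loss weakens secretory pathway function in fly cells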 (primary screen)
# System: Drosophila S2 cells expressing secreted horseradish peroxidase
# Knock-down reagent: long dsRNA against Drosophila genes
# Time to read-out: about 5.5 days (5 days dsRNA, then 12 h reporter induction)
# Treatment: reporter expression induced after 5 days of dsRNA, read 12 h later; inducer not stated
# Measurement: 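Chemiluminescent measurement of peroxidase in the medium 12 h after reporter induction, following 5 days of dsRNA, given as a z-score per plate; higher means more secretion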
# Scale: z-score: higher = more reporter secreted into medium
# The deposit covers about 23,000 reagents; below is a random part of those that have a named target and a result. 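Reduced-secretion tags in replicate 1 do not always agree with the z-scores; no criterion for assigning the tags was given.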 Names joined by + are all predicted targets of the reagent. Reagent sequences are not shown. Not stated in the record: the amount of reagent.
target gene,dsRNA,"z-score, replicate 1","z-score, replicate 2","z-score, replicate 3","z-score, replicate 4","phenotype, replicate 1"
Gnptab,DRSC07057,0.13,0.2,,,
CG42869 + Sfp93F,DRSC13505,0.3,-0.45,,,
Rdl (Resistant to dieldrin),DRSC08967,0.34,0.33,,,
Rdl (Resistant to dieldrin),DRSC11264,0.47,0.35,,,
H (Hairless),DRSC16692,0.38,0.53,,,
Fum2 (Fumarase 2),DRSC18345,0.01,-0.23,,,
slou (slouch),DRSC17058,0.39,0.28,,,
CG34327,DRSC19517,-0.23,-0.88,,,
CG34327,DRSC22380,0.69,1.02,,,
betaTub65B (beta-Tubulin at 65B),DRSC11393,0.43,0.32,,,
CG3184,DRSC18289,0.29,0.39,,,
eIF2gamma + Su(var)3-9,DRSC13081,-5.63,-5.67,,,reduced secretion
eIF2gamma + Su(var)3-9,DRSC16873,0.42,0.44,,,
CG33299,DRSC01085,0.77,0.92,,,
nxf2 (nuclear RNA export factor 2),DRSC10403,0.49,0.57,,,
Parp16 (Poly(ADP-ribose) polymerase 16),DRSC06597,0.38,0.36,,,
CG13367,DRSC18485,0.6,0.5,,,
CG13367,DRSC18486,0.51,0.45,,,
Mur29B (Mucin related 29B),DRSC01018,0.66,0.07,,,
Mur29B (Mucin related 29B),DRSC02376,0.29,0.39,,,
CG9616,DRSC16518,0.52,0.12,,,
PIG-Q (Phosphatidylinositol glycan anchor biosynthesis class Q),DRSC19138,0.31,0.29,,,
Bruce (BIR repeat containing ubiquitin-conjugating enzyme),DRSC16015,0.57,0.66,,,
CG7239,DRSC03038,-0.22,-1.25,,,
Pisd (Phosphatidylserine decarboxylase),DRSC15935,0.23,0.36,,,
CG12480,DRSC19460,0.03,0.48,0.43,0.54,
Psa (Puromycin sensitive aminopeptidase),DRSC08152,0.18,0.27,,,
CG10910,DRSC06007,0.37,0.26,0.02,0.31,
Cht9 (Chitinase 9),DRSC04079,0.23,0.15,,,
CG8838,DRSC00712,0.28,0.29,,,
CG15347,DRSC18031,0.18,0.58,,,
Met75Ca + Met75Cb,DRSC09549,0.65,-0.05,,,
Met75Ca + Met75Cb,DRSC11221,0.43,0.33,,,
CG13748,DRSC06419,0.26,-0.07,,,

The list goes on, starting with the last 4 of the part before.
target gene,dsRNA,"z-score, replicate 1","z-score, replicate 2","z-score, replicate 3","z-score, replicate 4","phenotype, replicate 1"
CG15347,DRSC18031,0.18,0.58,,,
Met75Ca + Met75Cb,DRSC09549,0.65,-0.05,,,
Met75Ca + Met75Cb,DRSC11221,0.43,0.33,,,
CG13748,DRSC06419,0.26,-0.07,,,
CG32720,DRSC17529,0.15,0.56,,,
ng3 (new glue 3),DRSC18804,0.38,0.23,,,
CG31244,DRSC21589,-0.44,0.03,,,
JhI-26 (Juvenile hormone-inducible protein 26),DRSC06851,0.16,0.31,,,
CG9747,DRSC16554,0.25,-0.45,-0.18,0.21,
CG12112,DRSC17809,0.14,0.48,,,
mrva (minerva),DRSC11009,0.3,0.34,0.52,0.34,
mrva (minerva),DRSC21842,1.02,0.49,,,
Hipk (Homeodomain interacting protein kinase),DRSC07885,0.48,0.46,,,
Hipk (Homeodomain interacting protein kinase),DRSC08507,-0.08,0.28,,,
CG5098,DRSC06915,0.29,0.35,,,
Tusp,DRSC15838,0.4,0.65,,,
CG12288,DRSC02155,0.36,0.1,,,
CG43131,DRSC12046,0.46,0.53,0.21,0.27,
ThrRS (Threonyl-tRNA synthetase),DRSC02843,-0.03,0.07,,,
CG8675,DRSC20117,0.15,0.26,,,
mRpS10 (mitochondrial ribosomal protein S10),DRSC15557,0,-0.33,,,
CG11600,DRSC14332,0.33,0.64,,,
Pepck1 (Phosphoenolpyruvate carboxykinase 1),DRSC07505,0.31,0.39,,,
MsR2 (Myosuppressin receptor 2),DRSC08336,0.32,0.42,,,
MsR2 (Myosuppressin receptor 2),DRSC08337,0.29,0.29,,,
MsR2 (Myosuppressin receptor 2),DRSC22440,-0.57,-0.13,,,
CG4701,DRSC01952,-0.85,-1.05,,,
Acadvl (Acyl-CoA dehydrogenase very long chain),DRSC07022,-1.69,-2.08,,,reduced secretion
h-cup + Rbp,DRSC14990,-0.19,0.15,,,
CG6550,DRSC07001,0.39,0.65,,,
CG13917,DRSC08386,0.29,0.24,-0.33,0.35,
CG17724,DRSC06687,0.5,0.46,,,
CG45002,DRSC20144,0.05,0.13,,,
CR11023 (pseudo),DRSC00302,0.26,0.33,,,
SLIRP1 + anox,DRSC20542,0.29,0.62,,,
CG8679,DRSC03109,0.23,0.26,,,
CG4988,DRSC02800,0.27,0.06,,,
msd1 (mitotic spindle density 1),DRSC08383,-0.34,0.09,,,
CG5618,DRSC11780,0.22,0.44,,,
CG30031 + deltaTry + gammaTry,DRSC07622,0.49,0.51,,,
dila (dilatory),DRSC06607,0.1,0.22,,,
CG14985,DRSC08078,0.27,-0.3,,,
CG14985,DRSC08443,0.36,0.14,,,
Dim1,DRSC00563,-1.34,-0.98,,,
CG5805,DRSC15878,0.39,0.39,,,
CG1545,DRSC21532,-0.06,-0.58,,,
SLIRP2 (SRA stem-loop interacting RNA binding protein 2),DRSC16363,0.2,0.29,,,
CG2211,DRSC08559,0.35,0.36,,,
MtnB (Metallothionein B),DRSC22744,0.46,-0.04,,,
CG7264,DRSC10793,-0.21,0.09,,,
CG13693,DRSC00362,0.27,0.26,,,
CG43174 (retired record),DRSC09518,0.27,0.11,,,
